Assay results published in the supplement of paper PMC12067093, “Discovery and optimisation of a covalent ligand for TRIM25 and its application to targeted protein ubiquitination” (Chemical Science, 2025).
The other results are listed elsewhere or left out.

Sequences of proteins named here, by UniProt entry; tags and fusion partners are left off. A change or cut given only in a name is not applied to a line headed by its entry.
UniProt P19397: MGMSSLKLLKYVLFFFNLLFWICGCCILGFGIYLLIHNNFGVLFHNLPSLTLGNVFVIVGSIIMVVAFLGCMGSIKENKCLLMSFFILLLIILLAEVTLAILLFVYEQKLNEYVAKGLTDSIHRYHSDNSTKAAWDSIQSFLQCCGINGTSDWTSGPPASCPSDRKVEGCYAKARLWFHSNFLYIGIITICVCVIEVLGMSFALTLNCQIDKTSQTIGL
UniProt P11049: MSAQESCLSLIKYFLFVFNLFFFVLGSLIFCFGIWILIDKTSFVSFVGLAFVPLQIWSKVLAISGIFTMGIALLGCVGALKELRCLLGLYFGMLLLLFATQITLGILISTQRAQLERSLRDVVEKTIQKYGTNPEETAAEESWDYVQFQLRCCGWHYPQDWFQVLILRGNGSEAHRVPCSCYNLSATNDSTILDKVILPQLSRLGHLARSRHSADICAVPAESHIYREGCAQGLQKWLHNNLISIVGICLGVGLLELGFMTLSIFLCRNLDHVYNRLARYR
UniProt P50990: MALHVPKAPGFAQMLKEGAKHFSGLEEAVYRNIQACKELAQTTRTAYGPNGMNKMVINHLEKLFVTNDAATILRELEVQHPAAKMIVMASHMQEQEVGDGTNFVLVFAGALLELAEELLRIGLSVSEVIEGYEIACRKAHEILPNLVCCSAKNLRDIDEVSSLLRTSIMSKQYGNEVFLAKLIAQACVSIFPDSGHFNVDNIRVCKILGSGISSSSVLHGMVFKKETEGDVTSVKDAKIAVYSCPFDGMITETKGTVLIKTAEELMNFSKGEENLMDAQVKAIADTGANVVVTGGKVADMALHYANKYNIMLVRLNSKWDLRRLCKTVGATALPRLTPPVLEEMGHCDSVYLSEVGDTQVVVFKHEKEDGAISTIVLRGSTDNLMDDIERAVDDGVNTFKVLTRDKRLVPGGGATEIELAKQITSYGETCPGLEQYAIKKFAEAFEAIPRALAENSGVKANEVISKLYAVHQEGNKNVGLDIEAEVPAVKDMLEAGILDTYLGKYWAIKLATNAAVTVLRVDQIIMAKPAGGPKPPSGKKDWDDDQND
UniProt P50991: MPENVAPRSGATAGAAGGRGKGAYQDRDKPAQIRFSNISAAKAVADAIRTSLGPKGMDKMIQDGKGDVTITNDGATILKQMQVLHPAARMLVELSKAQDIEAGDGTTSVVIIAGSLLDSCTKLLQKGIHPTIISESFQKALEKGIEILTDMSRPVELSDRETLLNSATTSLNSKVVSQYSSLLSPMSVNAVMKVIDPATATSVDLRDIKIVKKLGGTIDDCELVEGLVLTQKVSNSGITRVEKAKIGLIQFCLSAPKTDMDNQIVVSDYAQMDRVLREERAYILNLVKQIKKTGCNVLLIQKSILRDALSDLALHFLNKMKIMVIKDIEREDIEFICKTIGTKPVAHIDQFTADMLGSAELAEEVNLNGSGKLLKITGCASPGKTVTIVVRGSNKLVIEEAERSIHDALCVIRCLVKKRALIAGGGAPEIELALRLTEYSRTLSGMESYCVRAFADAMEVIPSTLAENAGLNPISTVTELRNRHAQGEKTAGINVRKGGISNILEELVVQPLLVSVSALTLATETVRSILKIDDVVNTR
UniProt P49454: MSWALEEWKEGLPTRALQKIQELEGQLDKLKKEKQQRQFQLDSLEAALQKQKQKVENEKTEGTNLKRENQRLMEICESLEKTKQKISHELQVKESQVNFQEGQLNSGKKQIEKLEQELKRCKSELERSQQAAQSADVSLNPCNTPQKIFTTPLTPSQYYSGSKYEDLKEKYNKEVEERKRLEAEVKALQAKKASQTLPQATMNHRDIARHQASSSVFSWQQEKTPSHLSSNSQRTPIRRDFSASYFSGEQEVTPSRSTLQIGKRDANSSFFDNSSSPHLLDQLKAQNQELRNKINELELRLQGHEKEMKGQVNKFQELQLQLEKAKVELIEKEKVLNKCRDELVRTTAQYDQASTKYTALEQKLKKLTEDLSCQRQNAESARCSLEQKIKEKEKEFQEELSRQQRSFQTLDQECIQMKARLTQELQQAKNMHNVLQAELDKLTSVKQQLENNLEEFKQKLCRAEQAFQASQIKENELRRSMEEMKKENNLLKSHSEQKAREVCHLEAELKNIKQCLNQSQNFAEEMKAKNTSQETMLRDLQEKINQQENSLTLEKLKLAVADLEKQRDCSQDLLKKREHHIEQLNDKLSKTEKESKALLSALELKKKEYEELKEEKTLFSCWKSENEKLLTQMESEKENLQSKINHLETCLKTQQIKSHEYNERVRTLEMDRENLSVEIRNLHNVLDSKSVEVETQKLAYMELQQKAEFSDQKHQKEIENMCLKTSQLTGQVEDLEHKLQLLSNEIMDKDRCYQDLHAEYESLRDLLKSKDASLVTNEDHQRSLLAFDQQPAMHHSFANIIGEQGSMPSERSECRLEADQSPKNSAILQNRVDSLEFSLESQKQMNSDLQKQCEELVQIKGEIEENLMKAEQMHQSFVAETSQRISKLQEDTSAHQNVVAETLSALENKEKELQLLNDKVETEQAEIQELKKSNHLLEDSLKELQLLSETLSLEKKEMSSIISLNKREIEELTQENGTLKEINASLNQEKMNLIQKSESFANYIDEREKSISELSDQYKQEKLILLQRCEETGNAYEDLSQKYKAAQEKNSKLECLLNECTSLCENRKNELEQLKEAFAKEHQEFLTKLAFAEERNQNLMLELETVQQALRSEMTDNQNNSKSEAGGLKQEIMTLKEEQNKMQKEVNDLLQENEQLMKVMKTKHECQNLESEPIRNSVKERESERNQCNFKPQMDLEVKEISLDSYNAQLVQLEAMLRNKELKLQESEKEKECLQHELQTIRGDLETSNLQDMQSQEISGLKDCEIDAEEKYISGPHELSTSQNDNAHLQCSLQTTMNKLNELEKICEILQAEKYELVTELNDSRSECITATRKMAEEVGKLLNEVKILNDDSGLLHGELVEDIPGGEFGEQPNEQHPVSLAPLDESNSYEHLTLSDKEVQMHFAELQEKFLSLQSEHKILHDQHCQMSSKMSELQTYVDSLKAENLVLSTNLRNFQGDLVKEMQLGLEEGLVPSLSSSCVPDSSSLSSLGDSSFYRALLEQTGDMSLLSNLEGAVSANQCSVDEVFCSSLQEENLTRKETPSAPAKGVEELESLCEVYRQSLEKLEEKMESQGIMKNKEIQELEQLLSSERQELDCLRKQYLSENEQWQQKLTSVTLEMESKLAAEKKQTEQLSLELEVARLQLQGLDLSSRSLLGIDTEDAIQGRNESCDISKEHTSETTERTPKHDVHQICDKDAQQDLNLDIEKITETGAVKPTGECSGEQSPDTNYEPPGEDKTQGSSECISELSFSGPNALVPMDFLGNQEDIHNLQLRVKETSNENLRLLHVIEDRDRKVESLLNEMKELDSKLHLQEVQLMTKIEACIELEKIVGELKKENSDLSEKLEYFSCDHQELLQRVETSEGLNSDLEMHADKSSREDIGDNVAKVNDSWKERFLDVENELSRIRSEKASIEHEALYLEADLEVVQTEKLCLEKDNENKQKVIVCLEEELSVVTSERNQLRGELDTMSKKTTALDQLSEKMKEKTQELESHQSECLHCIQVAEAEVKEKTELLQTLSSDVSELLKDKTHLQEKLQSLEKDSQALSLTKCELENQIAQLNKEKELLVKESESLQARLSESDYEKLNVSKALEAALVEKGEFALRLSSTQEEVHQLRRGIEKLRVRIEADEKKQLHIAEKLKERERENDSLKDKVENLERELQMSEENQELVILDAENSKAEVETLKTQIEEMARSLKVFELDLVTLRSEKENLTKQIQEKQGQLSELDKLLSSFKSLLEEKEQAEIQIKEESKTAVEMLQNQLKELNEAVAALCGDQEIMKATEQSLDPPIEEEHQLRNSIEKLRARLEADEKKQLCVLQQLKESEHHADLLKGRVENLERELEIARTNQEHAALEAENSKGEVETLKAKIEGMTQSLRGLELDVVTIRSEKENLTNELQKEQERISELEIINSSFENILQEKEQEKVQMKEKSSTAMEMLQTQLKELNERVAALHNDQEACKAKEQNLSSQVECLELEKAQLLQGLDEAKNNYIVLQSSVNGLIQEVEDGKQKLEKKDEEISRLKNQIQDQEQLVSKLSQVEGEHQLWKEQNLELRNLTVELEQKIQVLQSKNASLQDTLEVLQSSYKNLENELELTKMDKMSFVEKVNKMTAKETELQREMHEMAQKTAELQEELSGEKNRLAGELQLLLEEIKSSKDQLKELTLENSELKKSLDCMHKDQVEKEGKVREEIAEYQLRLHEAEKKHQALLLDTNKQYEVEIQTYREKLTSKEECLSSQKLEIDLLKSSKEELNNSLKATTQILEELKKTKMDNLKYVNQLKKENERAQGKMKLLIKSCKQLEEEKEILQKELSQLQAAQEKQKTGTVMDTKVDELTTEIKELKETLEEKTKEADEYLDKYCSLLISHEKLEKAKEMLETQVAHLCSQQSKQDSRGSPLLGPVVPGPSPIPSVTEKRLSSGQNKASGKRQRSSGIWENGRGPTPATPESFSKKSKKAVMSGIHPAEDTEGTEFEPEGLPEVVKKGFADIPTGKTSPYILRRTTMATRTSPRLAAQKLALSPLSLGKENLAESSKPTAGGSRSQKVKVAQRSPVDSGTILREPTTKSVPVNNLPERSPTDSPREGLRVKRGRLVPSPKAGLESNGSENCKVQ
UniProt P28907, whole entry, looked up: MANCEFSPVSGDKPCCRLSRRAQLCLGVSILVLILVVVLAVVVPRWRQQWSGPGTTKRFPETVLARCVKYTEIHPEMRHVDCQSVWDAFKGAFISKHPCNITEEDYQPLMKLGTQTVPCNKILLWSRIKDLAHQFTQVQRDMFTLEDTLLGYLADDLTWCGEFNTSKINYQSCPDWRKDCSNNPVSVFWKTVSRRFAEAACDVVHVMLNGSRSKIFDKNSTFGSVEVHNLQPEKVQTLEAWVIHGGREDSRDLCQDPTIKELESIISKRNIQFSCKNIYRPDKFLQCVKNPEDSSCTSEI
UniProt Q5SW79: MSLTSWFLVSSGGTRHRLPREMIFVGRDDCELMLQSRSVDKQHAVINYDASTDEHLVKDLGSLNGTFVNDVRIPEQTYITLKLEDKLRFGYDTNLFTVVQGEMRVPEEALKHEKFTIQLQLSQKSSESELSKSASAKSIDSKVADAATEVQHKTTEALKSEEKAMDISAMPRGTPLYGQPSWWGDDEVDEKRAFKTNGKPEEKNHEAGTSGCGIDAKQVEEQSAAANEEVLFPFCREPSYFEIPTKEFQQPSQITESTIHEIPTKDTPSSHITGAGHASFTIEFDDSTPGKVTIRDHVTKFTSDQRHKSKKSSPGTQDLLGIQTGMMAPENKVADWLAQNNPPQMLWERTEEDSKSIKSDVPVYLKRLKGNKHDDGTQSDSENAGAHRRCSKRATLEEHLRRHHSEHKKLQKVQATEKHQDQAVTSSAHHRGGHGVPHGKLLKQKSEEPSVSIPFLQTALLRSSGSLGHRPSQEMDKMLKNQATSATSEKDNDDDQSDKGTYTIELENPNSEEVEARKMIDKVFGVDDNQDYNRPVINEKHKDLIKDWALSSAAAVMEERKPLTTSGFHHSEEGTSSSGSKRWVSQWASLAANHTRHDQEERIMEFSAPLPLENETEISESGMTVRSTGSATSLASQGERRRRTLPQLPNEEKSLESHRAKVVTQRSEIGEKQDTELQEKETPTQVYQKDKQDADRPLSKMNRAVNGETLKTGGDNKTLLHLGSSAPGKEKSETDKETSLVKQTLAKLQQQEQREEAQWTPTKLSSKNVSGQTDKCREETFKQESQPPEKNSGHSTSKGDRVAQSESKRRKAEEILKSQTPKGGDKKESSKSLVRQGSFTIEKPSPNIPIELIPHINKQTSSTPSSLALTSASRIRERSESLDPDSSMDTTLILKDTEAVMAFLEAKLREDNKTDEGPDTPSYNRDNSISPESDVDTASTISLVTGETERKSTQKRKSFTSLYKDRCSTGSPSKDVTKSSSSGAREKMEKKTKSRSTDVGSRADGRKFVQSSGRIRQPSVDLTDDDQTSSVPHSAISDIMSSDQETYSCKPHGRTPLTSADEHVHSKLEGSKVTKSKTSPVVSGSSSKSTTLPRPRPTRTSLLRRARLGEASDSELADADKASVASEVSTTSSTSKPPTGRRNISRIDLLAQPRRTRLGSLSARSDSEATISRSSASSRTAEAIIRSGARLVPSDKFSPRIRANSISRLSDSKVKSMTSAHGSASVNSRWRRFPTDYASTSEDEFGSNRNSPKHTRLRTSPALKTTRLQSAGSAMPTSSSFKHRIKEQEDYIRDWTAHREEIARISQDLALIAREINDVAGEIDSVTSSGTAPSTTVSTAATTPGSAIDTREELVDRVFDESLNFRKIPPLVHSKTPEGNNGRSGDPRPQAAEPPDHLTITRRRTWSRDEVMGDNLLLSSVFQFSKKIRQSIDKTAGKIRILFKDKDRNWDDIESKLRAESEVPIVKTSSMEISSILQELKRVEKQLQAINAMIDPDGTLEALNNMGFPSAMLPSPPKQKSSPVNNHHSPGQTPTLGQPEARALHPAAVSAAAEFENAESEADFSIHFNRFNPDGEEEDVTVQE

Compound: CC1Cc2ccccc2N1C(=O)C1CCCN(C1)C(=O)CCl (mixture of isomers) [TRIM25 ligand 11 (diastereomer mixture)]
Assay: probe-labelled cysteine peptide fold change vs DMSO (competition) (log2 fold change); higher = less target engagement (more negative = stronger competition)
Details: THP-1, incubation time: 4 h
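Also: competitive chemoproteomic profiling in live THP-1 cells with an iodoacetamide desthiobiotin (IA-DTB) probe, comparing probe-labelled peptide intensities in compound-treated cells against DMSO-treated controls.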

Target: CD53_P19397_170_KVEGCYAK (UniProt P19397)
- probe-labelled cysteine peptide fold change (10 µM): 0.00731
- probe-labelled cysteine peptide fold change (50 µM): 0.045

Target: CD37_P11049_217_HSADICAVPAESHIYR (UniProt P11049)
- probe-labelled cysteine peptide fold change (10 µM): 0.00639
- probe-labelled cysteine peptide fold change (50 µM): -0.177

Target: CDC42BPB_Q9Y5S2_1328_GCQLMATATLKR (UniProt Q9Y5S2)
- probe-labelled cysteine peptide fold change (10 µM): 0.00823
- probe-labelled cysteine peptide fold change (50 µM): -0.0497

Target: CCT8_P50990_430_QITSYGETCPGLEQYAIK (UniProt P50990)
- probe-labelled cysteine peptide fold change (10 µM): -0.174
- probe-labelled cysteine peptide fold change (50 µM): -0.123

Target: CCT4_P50991_295_KTGCNVLLIQK (UniProt P50991)
- probe-labelled cysteine peptide fold change (10 µM): -0.186
- probe-labelled cysteine peptide fold change (50 µM): 0.021

Target: CENPF_P49454_2834_EECLSSQK (UniProt P49454)
- probe-labelled cysteine peptide fold change (10 µM): 0.00823
- probe-labelled cysteine peptide fold change (50 µM): 0.152

Target: CDC16_Q13042_163_LDVYCFEAFDLLTSHHMLTAQEEK (UniProt Q13042)
- probe-labelled cysteine peptide fold change (10 µM): 0.157
- probe-labelled cysteine peptide fold change (50 µM): -0.0968

Target: CD38_P28907_254_DLCQDPTIK (UniProt P28907)
- probe-labelled cysteine peptide fold change (10 µM): 0.18
- probe-labelled cysteine peptide fold change (50 µM): 0.0354

Target: CDCA2_Q69YH5_792_DCHCLGDVLIENTK (UniProt Q69YH5)
- probe-labelled cysteine peptide fold change (10 µM): 0.0212
- probe-labelled cysteine peptide fold change (50 µM): -0.255

Target: CENPM_Q9NSP4_98_VCFLATGAGR (UniProt Q9NSP4)
- probe-labelled cysteine peptide fold change (10 µM): -0.0713
- probe-labelled cysteine peptide fold change (50 µM): 0.1

Target: CEP170_Q5SW79_30_DDCELMLQSR (UniProt Q5SW79)
- probe-labelled cysteine peptide fold change (10 µM): 0.137
- probe-labelled cysteine peptide fold change (50 µM): -0.0477

Target: CEP85_Q6P2H3_380_PAPFGDVCLLR (UniProt Q6P2H3)
- probe-labelled cysteine peptide fold change (10 µM): -0.0377
- probe-labelled cysteine peptide fold change (50 µM): 0.0929

Target: CERS6_Q6ZMG9_380_NPHTATTTNGTSGTNGYLLTGSCSMDD (UniProt Q6ZMG9)
- probe-labelled cysteine peptide fold change (10 µM): 0.168
- probe-labelled cysteine peptide fold change (50 µM): -0.402

Target: CDC23_Q9UJX2_109_AAHFLHGCNSK (UniProt Q9UJX2)
- probe-labelled cysteine peptide fold change (10 µM): 0.0496
- probe-labelled cysteine peptide fold change (50 µM): 0.238

Target: CCT5_P48643_181_VVNSCHR (UniProt P48643)
- probe-labelled cysteine peptide fold change (10 µM): 0.109
- probe-labelled cysteine peptide fold change (50 µM): 0.0213

Target: CD44_P16070_77_ALSIGFETCR (UniProt P16070)
- probe-labelled cysteine peptide fold change (10 µM): -0.00517
- probe-labelled cysteine peptide fold change (50 µM): 0.0973

Target: CCT4_P50991_337_EDIEFICK (UniProt P50991)
- probe-labelled cysteine peptide fold change (10 µM): 0.306
- probe-labelled cysteine peptide fold change (50 µM): 0.127

Target: CENPF_P49454_569_DCSQDLLK (UniProt P49454)
- probe-labelled cysteine peptide fold change (10 µM): 0.203
- probe-labelled cysteine peptide fold change (50 µM): 0.15

Target: CEP350_Q5VT06_2412_DSQSCR (UniProt Q5VT06)
- probe-labelled cysteine peptide fold change (10 µM): -0.153
- probe-labelled cysteine peptide fold change (50 µM): -0.218

Target: CCT7_Q99832_450_QLCDNAGFDATNILNK (UniProt Q99832)
- probe-labelled cysteine peptide fold change (10 µM): 0.0363
- probe-labelled cysteine peptide fold change (50 µM): 0.0425

Target: CDK16_Q00536_206_EIRLEHEEGAPCTAIR (UniProt Q00536)
- probe-labelled cysteine peptide fold change (10 µM): 0.0245
- probe-labelled cysteine peptide fold change (50 µM): -0.016

Target: CEP250_Q9BV73_1557_QLVTLECLALELEENHHK (UniProt Q9BV73)
- probe-labelled cysteine peptide fold change (10 µM): -0.04
- probe-labelled cysteine peptide fold change (50 µM): 0.00998

Target: CCT8_P50990_148_KAHEILPNLVCCSAK (UniProt P50990)
- probe-labelled cysteine peptide fold change (10 µM): -0.218
- probe-labelled cysteine peptide fold change (50 µM): -0.2

Target: CENPV_Q7Z7K6_154_HTGGCHCGAVR (UniProt Q7Z7K6)
- probe-labelled cysteine peptide fold change (10 µM): 0.106
- probe-labelled cysteine peptide fold change (50 µM): 0.301

Target: CDC27_P30260_503_EAINILSHLPSHHYNTGWVLCQIGR (UniProt P30260)
- probe-labelled cysteine peptide fold change (10 µM): 0.0327
- probe-labelled cysteine peptide fold change (50 µM): -0.0128

Target: CD180_Q99467_419_ECPQLELLDLAFTR (UniProt Q99467)
- probe-labelled cysteine peptide fold change (10 µM): -0.123
- probe-labelled cysteine peptide fold change (50 µM): -0.275

Target: CERCAM_Q5T4B2_391_GEVGCFLSHYSIWEEVVAR (UniProt Q5T4B2)
- probe-labelled cysteine peptide fold change (10 µM): 0.0829
- probe-labelled cysteine peptide fold change (50 µM): 0.041

Target: CDK5_Q00535_83_KLTLVFEFCDQDLKK (UniProt Q00535)
- probe-labelled cysteine peptide fold change (10 µM): -0.0359
- probe-labelled cysteine peptide fold change (50 µM): -0.0854
